Experimental data reported in PMC13572491.
These are yes or no findings as the source states them, for the method shown. Some entries that bind do so weakly or less than the wild type.

By UniProt entry, the sequences of proteins in these tests, tags left out.
UniProt A7SLZ2: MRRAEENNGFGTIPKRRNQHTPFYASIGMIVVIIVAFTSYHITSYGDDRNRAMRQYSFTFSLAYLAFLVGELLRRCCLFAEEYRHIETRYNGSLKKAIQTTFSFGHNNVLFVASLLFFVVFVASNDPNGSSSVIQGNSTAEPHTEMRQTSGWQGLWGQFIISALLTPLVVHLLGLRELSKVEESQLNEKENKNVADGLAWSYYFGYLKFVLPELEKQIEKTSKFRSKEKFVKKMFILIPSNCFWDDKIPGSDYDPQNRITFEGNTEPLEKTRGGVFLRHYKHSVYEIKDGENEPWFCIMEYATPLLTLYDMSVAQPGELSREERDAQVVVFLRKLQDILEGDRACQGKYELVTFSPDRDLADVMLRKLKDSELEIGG

Target: HA-NvSTING stably expressed in MEF Sting-/- (MEF^NvSTING) (Nematostella vectensis) (UniProt A7SLZ2)
Assay: native gel or EMSA; native electrophoresis (NativePAGE 3-12% Bis-Tris, lysis in 25 mM NaCl, 20 mM HEPES pH 7.0, 10% glycerol, 1% DDM) and Western blot of lysates of MEF lines expressing STING homologs, 1 h or 3 h after 2’3’-cGAMP

- binding: binds
Substance: HA-NvSTING stably expressed in MEF Sting-/- (MEF^NvSTING) (from UniProt A7SLZ2 1-377)
